Literature values in patent publication US6908932B2, “Modulators of phosphoinositide 3-kinase” (Iconix Pharmaceuticals, Inc., priority 2001, dated 2005).
For at least one compound, name, drawing or mass did not settle the structure.

Key:
[1] = tested on: ovarian cancer cell lines
[2] = tested on: immature myelomonocytic cells from NF1 −/− mice; conditions: NF1 −/− myelomonocytic cells incubated with inhibitor

Row | SMILES | apoptosis [1] | proliferation [1] | PKB/AKT activity (glioblastoma cells) | levels of the lipid products (glioblastoma cells) | IC50 (purified PI3K) | apoptosis [2]
1 | O=c1cc(N2CCOCC2)oc2c(-c3ccccc3)cccc12 [LY294002] | increases apoptosis | decreases proliferation | abolished the PKB/AKT activity | reduced the levels of the lipid products | 500 to 1500 nM | undergo apoptosis
2 | COC[C@H]1OC(=O)c2coc3c2[C@@]1(C)C1=C(C3=O)[C@@H]2CCC(=O)[C@@]2(C)C[C@H]1OC(C)=O [wortmannin] | – | – | – | – | 2 to 5 nM | undergo apoptosis
